Laboratory results taken from patent publication US8134010B2, “Thiazole-based nitric oxide donors having aryl substituent(s) and uses thereof” (priority 2004, dated 2012).
“Also recorded” adds a separate entry of the source. For some assays here: At least one read-out could not be matched to a standard name with certainty. For some assays here: For at least one compound, name, drawing or mass did not settle the structure.

What was measured:
[1] = tested on: cyclic-GMP in isolated aorta of rats; assay: Induction of in vivo nitrate tolerance (cGMP in isolated aorta of rats pre-treated in vivo); parameters: species or system rat; settings: rats pre-treated in vivo with the same compound
Protocol: For c-GMP levels and tolerance development, the rat's thoracic aorta was isolated after exposure to the tested compound in vivo, and measured as described above in the in vitro assays.
Male Sprague Dawley rats (220 to 250 grams) were housed under constant temperature and humidity conditions. Light was maintained at a 12/12 light dark cycle. Except for 12 hours before the experiment, when food fasting was initiated, all rats had free access to standard rat pellet diet and tap water. The animals were anesthetized by intraperitoneal injection of ketamine and xylazine combination (50 and 10 milligram per kilogram, respectively). […] The catheters were filled with normal saline solution containing 1000 IU/ml of heparin and plugged with a metal pin. Catheters were externalized to the back of the neck region and secured by a polyester felt disk.
After implantation, the rats were individually housed until they regained their preoperative weight and appeared healthy (3 to 4 days post-operation). At this time point (day 0), an osmotic mini-pump (Alza Corp., Palo Alto, Calif.) delivering constant volume (10 μl/hour) of vehicle or drug was connected to one of the intravenous catheters.
For inducing tolerance to the tested NO-donor according to the present invention, the animals received 200 μg/hour of the tested compound for 16 hours (short-term-induced tolerance). […]

[2] = tested on: hypertensive Sprague-Dawley male rats; assay: Hypotensive effects: mean arterial pressure during intravenous bolus doses; assay type: in vivo, rat; settings: rats given phenylephrine
Protocol: Mean arterial pressure (MAP) was monitored and determined during bolus infusion of Pet-2, Pet-3, Pet-7, Pet-8, Pet-12 and Pet-13. Briefly, polyethylene catheters (PE50) were inserted into the carotid artery and into the jugular vein of anesthetized hypertensive Sprague-Dawley male rats (200-300 grams). A blood pressure recorder was placed within the carotid artery. Phenylephrine (0.1 mg) was then injected and the mean arterial blood pressure (MABP) was monitored continuously until a stable baseline was reached. The hypotensive effects of intravenous (iv) bolus doses (0.1 mg of each tested compound) administered intravenously at the jugular vein in minimal volume of vehicle (0.2 ml per dose) were evaluated. Five minutes were allowed between each dose, during which the maximal decrease in MAP was recorded and a dose-response graph comparing the hypotensive effect of the compounds was constructed.

[3] = tested on: c-GMP in slices of thoracic aorta of rats; assay: Cyclic-GMP measurement in aortic rat tissue (radioimmunoassay); assay type: cell-based
Protocol: GTN (10^−6 M) was added to the chamber and, 1 minute after exposure to the drug, rings (usually 3-5) were taken, wrapped with aluminum foil and immediately frozen in liquid nitrogen for storage. Control sample group was treated with the vehicle solution only. At the time of analysis, rings were thawed, blotted over a dry gauzed and weighted. A known weight of tissue was homogenized in 2 ml ice-cold modified Hank's balanced salt solution containing (in gram/liter) NaCl 8; KCl 0.4; glucose 1; KH2PO4 0.06; Na2HPO4 0.047; Phenol red 0.017 and further containing 25 mM EDTA (disodium salt). The homogenate was centrifuged at 4000 g (force units) for 10 minutes at 2-4° C. and the supernatant was thereafter transferred into fresh pre-cooled test tube containing 1 ml of acetonitrile. The tubes were vortex mixed for a few seconds and subsequently centrifuged at 4000 g for 5 minutes at 2-4° C., to remove the precipitated protein. Each supernatant was transferred into a clean test tube and evaporated to dryness under a stream of nitrogen at 55° C. The dry residue was reconstituted with 10 volumes of Tris-EDTA buffer pH 7.5 (0.05 M Tris containing 4 mM EDTA). Aliquots of 100 μl of the reconstituted solution in duplicate were used for c-GMP measurements using Amersham RIA kit, as is described in Haj-Yehia & Benet [Pharmacology, 1995, 273, 1, pp. 94-100]. Standard curves were plotted with six concentrations (0, 0.5, 1, 2, 4 and 8 pmoles of c-GMP per tube).
The NO-tolerance effect of GTN and NO-donor compounds according to the present invention was measured by following the production of c-GMP in slices of thoracic aorta of rats. Thus, the production of c-GMP was measured as described in the methods section above for the reference NO-donor compound GTN, and for the NO-donors of the present invention Pet-2, Pet-3, Pet-7, Pet-8, Pet-10, Pet-12, Pet-24, Pet-59, Pet-106, Pet-107, Pet-120, Pet-147, Pet-149, Pet-152, Pet-154 and Pet-155.

Row | SMILES | tolerance induction by cyclic-GMP accumulation in aorta of rats pre-treated in vivo [1] | activity as hypotensive agents (MAP) [2] | cGMP Pre-infusion [3]
1 | CCc1nc(C)c(CCO[N+](=O)[O-])s1 [Pet-2, 2-Ethyl-4-methyl-5-(2-nitrooxy-ethyl)-thiazole] | remained substantially unchanged; also recorded: absence of tolerance induction | high activity | 
2 | Cc1nc(-c2ccc([N+](=O)[O-])cc2)sc1CCO[N+](=O)[O-] [Pet-120, 4-Methyl-5-(2-nitrooxy-ethyl)-2-(4-nitro-phenyl)-thiazole] |  |  | 135 ± 10 pmol/g tissue
3 | Cc1nc(-c2ccc(N)cc2)sc1CCO[N+](=O)[O-] [Pet-106, 4-[4-Methyl-5-(2-nitrooxy-ethyl)-thiazol-2-yl]-phenylamine] |  |  | 124 ± 12 pmol/g tissue
4 | CC(=O)Nc1ccc(-c2nc(C)c(CCO[N+](=O)[O-])s2)cc1 [Pet-107, N-{4-[4-Methyl-5-(2-nitrooxy-ethyl)-thiazol-2-yl]-phenyl}-acetamide] |  |  | 122 ± 10 pmol/g tissue
